Reference: PMC6259618 (Molecules, 2011)
End groups of sequences in plain letters are not given here. HELM strings list residues between dots; [ac] is acetyl, [am] amide, other brackets name non-standard units.

Assay: general procedure: Fmoc solid-phase peptide synthesis
Conditions: whole synthesis, HPLC with UV detection; MALDI-TOF MS for mass

Row | Substance | final HPLC purity [%]
1 | ARPNRAQDYNTN | >99
2 | C-FRPNRAQDYNTN-C | >99
3 | FAPNRAQDYNTN | >99
4 | FRANRAQDYNTN | >95
5 | FRPARAQDYNTN | >99
6 | FRPNAAQDYNTN | >95
7 | FRPNRAADYNTN | >95
8 | FRPNRAQAYNTN | >95
9 | FRPNRAQDANTNy | >95
10 | FRPNRAQDYATN | >95
11 | FRPNRAQDYNAN | >95
12 | FRPNRAQDYNTA | >95
13 | FRPNRAQDYNTN | >99
14 | FRPNRAQDYNTN-K-DOTA | >99
15 | PEPTIDE1{F.R.P.N.R.A.Y}$$$$V2.0 | >95
16 | fRPNRAQDYNTN | >99
